Measured values taken from patent US20100104628A1, “METHOD OF TREATING NEUROBLASTOMA” (priority 2007, published 2010).
For part of these data: The name of at least one read-out is uncertain. Some results were stated once for a whole list of compounds, not compound by compound. For part of these data: At least one structure is not confirmed: it was looked up by name or label, or the drawing left a doubt.

The chains behind the UniProt entries cited, without tags or fusion partners.
UniProt P23975, whole entry: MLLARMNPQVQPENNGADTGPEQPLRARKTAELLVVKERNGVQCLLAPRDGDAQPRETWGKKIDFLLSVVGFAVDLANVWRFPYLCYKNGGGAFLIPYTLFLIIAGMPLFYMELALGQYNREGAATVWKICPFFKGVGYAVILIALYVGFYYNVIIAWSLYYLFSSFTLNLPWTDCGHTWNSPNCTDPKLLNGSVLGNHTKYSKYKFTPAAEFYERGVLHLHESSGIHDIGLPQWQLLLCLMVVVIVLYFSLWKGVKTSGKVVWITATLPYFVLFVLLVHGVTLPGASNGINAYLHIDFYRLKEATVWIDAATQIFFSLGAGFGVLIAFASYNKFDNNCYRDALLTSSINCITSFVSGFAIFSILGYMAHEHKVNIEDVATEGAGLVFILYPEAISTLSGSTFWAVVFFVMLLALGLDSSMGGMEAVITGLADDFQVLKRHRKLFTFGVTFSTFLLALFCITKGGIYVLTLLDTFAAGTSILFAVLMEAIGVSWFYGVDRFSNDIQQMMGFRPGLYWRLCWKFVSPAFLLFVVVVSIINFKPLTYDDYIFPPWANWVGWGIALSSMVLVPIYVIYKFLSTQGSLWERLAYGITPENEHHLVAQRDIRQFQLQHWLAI

How the values were obtained:
[1] = target: T1, NET (Homo sapiens, UniProt P23975); assay: NET competitive binding assay ([125I]MIBG displacement, SK-N-SH cells); conditions: 5 μM test compound, 2 hr incubation
T1 construct: endogenous in cells; host or cells: SK-N-SH neuroblastoma cells
Procedure: An assay to assess binding of various MIBG-analogs to the NET was performed by published methods (Vaidynathan et al, Nucl. Med. Commun. 25:947-955 (2004), Vaidynathan et al, Bioorg. Med. Chem. 12:1649-1656 (2004), Vaidynathan et al, Bioconjugate Chem. 12:798-806 (2001), Vaidynathan et al, Eur. J. Nucl. Med. Mol. Imaging 31:1362-1370 (2004)). In brief, neuroblastoma SK—N—SH cells (moderate levels of NET) were treated with [^125I]MIBG and with increasing concentrations of unlabeled MIBG or MIBG-analogs. At the end of a 2 hr incubation and appropriate work-up, the cell-bound radioactivity was counted. Total cell-bound radioactivity minus non-specific cell-bound radioactivity gave a value for specific binding which was plotted in FIG. 9 against the concentration of test compounds. At 5 μM, cold MIBG displaced “100%” of the labeled-MIBG (i.e., “zero” cell-bound radioactivity). At 5 μM, chloromethyl-MIBG displaced 83%; the disulfide MIBG-SS-ethyl and the ester MIBG-phenylbutyrate displaced 50-55%; and hydroxymethyl-MIBG displaced 27%.

[2] = test system: MCF7 (NET 0); type: cell-based, human; conditions: with vs without desipramine

| SMILES | displacement of [125I]MIBG (specific cell-bound radioactivity) [1] | effect of desipramine on IC50 [2] |
| --- | --- | --- |
| N=C(N)NCc1ccc(COC(=O)CCCc2ccccc2)c(I)c1 [MIBG-phenylbutyrate] | 50-55% |  |
| N=C(N)NCc1ccc(CCl)c(I)c1 [Chloromethyl-MIBG] |  | no impact on the IC50 value |
| CCSSCc1ccc(CNC(=N)N)cc1I [MIBG-SS-ethyl] | 50-55% |  |
